This note sets out measurements from PMC7295792.

The chains behind the UniProt entries cited, without tags or fusion partners.
UniProt P21999, whole entry: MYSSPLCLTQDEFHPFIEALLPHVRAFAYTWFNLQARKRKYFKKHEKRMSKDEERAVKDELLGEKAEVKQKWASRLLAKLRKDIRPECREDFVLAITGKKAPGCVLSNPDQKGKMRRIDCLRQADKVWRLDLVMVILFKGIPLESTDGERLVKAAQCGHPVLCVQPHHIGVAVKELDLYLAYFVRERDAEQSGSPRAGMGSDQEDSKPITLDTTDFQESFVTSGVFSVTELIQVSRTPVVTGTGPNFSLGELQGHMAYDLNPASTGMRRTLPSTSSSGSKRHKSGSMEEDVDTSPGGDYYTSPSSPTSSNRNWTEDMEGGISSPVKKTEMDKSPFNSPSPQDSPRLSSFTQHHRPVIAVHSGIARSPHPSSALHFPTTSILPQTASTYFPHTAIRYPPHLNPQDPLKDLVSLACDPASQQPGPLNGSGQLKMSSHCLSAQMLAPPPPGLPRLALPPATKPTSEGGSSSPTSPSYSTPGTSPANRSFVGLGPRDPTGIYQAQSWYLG

The target of data set [1] is NF1 (nuclear factor 1/C) (Sus scrofa (porcine)) (UniProt P21999). Description: EMSA. The settings on record: 200 mM NaCl, minor binding, attributed to unspecific binding; NF1 binding buffer: 5 mM Tris-Cl pH 8.0, 90 mM NaCl (200 mM for EMSA and Fig. 2d), 0.5 mM EDTA, 5% glycerol, 0.55 mM beta-mercaptoethanol, 1 ug BSA; recombinant protein; protein details: 6xHis; label: 5'-biotin on both strands. (In general: In EMSA bound probe runs differently from free probe, usually more slowly.)

For data set [2] the target is unchanged. Description: femtosecond UV laser crosslinking, western blot. Particulars: 200 mM NaCl, crosslinking stated specific for wild type; NF1 binding buffer: 5 mM Tris-Cl pH 8.0, 90 mM NaCl (200 mM for EMSA and Fig. 2d), 0.5 mM EDTA, 5% glycerol, 0.55 mM beta-mercaptoethanol, 1 ug BSA; recombinant protein; protein details: 6xHis; label: 5'-biotin on both strands.

For at least one entry, the source does not settle the construct or the ends of the probe. Weaker means in comparison with the reference protein, sequence or condition of that experiment.

Turning to “AATTCCTTTTTTTGCGCTAAAGCGTAGTGGATAATGAGG (double strand) [NF1 mutant consensus oligo]”, the binding result in data set [1] is listed as “binds more weakly”.

With “AAGTCCTTTTTTAGCGCTAAAGCGTAGTGGCTGATGAGG (double strand) [NF1 mutant oligo of Fig. 2d]”, in data set [2], the binding result is “binds more weakly”.
